Measured values reported in paper PMC4311135.

Protein sequences, listed by entry. Tags and fused reporters are not part of them. Lines headed by an entry give the natural chain unless they say otherwise; changes in a name come on top. Residues count along the entry.
UniProt Q92542, residues 34-709: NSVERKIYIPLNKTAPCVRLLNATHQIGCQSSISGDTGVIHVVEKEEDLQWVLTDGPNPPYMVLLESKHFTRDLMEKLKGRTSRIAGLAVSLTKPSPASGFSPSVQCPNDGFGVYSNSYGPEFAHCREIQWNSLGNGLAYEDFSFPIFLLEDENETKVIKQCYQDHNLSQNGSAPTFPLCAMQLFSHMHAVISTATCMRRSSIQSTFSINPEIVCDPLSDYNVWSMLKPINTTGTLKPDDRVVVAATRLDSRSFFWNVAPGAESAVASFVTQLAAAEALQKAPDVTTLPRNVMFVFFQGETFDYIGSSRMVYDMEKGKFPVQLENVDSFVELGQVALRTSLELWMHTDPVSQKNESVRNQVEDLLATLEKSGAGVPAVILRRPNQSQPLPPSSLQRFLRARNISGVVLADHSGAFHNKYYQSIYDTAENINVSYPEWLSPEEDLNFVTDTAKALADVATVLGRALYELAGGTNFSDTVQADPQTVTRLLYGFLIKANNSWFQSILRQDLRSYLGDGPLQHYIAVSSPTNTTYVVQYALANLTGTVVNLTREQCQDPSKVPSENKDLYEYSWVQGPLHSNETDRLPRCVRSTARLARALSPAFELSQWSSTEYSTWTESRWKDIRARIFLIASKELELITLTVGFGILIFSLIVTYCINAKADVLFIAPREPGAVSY
UniProt Q96BI3: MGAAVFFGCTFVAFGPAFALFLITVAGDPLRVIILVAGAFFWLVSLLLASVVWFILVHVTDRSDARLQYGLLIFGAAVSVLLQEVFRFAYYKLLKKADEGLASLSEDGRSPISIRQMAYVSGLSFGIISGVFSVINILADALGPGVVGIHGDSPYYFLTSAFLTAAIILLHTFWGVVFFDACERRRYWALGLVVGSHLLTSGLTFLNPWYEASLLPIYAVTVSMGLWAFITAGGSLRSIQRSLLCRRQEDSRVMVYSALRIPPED

Molecular target: nicastrin (NCT), expressed as a GFP fusion (UniProt Q92542)
Assay: antibody labelling with negative-stain single particle electron microscopy; purified γ-secretase bound on Nb30 beads incubated overnight at 4°C with antibodies against NCT ECD, NCT CT, PS1 CTF, APH-1 and PEN-2, eluted with 250 mM imidazole; 2D class averages

In the case of “anterior pharynx defective 1A (APH-1A) (from UniProt Q96BI3)”, the binding is reported as “binds”.

No constants are given. Whether binding was seen depends on the method and setting. Binding can be weak; no strength is given.
